Measurements from article PMC5471220.
These are yes or no findings as the source states them, for the method shown. In cells and extracts the contact can be indirect. Binding calls can cover weak binding; strength is not graded here.

Molecular target: T1, Hap5-Protein A (Candida glabrata) (UniProt Q6FM95)
T1 sequence: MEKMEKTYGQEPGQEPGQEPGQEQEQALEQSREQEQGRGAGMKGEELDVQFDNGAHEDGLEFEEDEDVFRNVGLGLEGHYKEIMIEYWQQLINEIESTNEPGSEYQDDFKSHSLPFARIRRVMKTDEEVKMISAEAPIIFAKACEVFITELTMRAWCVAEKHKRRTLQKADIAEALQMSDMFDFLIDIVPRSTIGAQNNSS
Assay: co-IP; Hap5-Protein A as bait on Dynabeads PanMouse IgG, from 100 mL of C. glabrata culture at OD = 0.8 in CSM-His media; Yap5-myc (prey) detected by western blot with anti-myc antibody; performed twice

Yap5-myc (wild type) (Candida glabrata)
binding: binds
